# The supplement of paper PMC9233669
# This sample is rich in variants without activity.
# What was measured:
# [1] = tested on: biotinyl-Trp-oxazolone; assay: self-aminoacylation, catalytic enhancement (BWO) (fold over background); higher = more active; k-Seq, kA / k0A0; sequences stand for … in GGGAAUGGAUCCACAUCUACGAAUUC…UUCACUGCAGACUUGACGAAGCUG
# Summary of the method: (§1)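 The uncatalyzed rate is the low-activity peak of a bimodal Gaussian fit, and catalytic enhancement is median kA divided by it. The kA values came from pseudo-first-order fits, with 1000 bootstraps, of per-sequence fraction reacted measured by streptavidin capture, triplicate qPCR and Illumina sequencing. Mutagenized RNA pools with a 21-nt variable region (0.43 μM) were reacted with each biotinyl-aminoacyl-oxazolone at 2–1250 μM in 50 μL HEPES/NaCl/KCl/MgCl2/CaCl2 buffer with 5% acetonitrile, pH 6.9–7.0, for 90 minutes at room temperature.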
# [2] = tested on: biotinyl-Leu-oxazolone; assay: self-aminoacylation, catalytic enhancement (BLO) (fold over background); higher = more active; k-Seq, kA / k0A0; sequences stand for … in GGGAAUGGAUCCACAUCUACGAAUUC…UUCACUGCAGACUUGACGAAGCUG
# Summary of the method: as §1
# [3] = tested on: biotinyl-Val-oxazolone; assay: self-aminoacylation, catalytic enhancement (BVO) (fold over background); higher = more active; k-Seq, kA / k0A0; sequences stand for … in GGGAAUGGAUCCACAUCUACGAAUUC…UUCACUGCAGACUUGACGAAGCUG
# Summary of the method: as §1
# [4] = tested on: biotinyl-Ile-oxazolone; assay: self-aminoacylation, catalytic enhancement (BIO) (fold over background); higher = more active; k-Seq, kA / k0A0; sequences stand for … in GGGAAUGGAUCCACAUCUACGAAUUC…UUCACUGCAGACUUGACGAAGCUG
# Summary of the method: as §1
# [5] = tested on: biotinyl-Met-oxazolone; assay: self-aminoacylation, catalytic enhancement (BMO) (fold over background); higher = more active; k-Seq, kA / k0A0; sequences stand for … in GGGAAUGGAUCCACAUCUACGAAUUC…UUCACUGCAGACUUGACGAAGCUG
# Summary of the method: as §1
Sequence,self-aminoacylation [1],self-aminoacylation [2],self-aminoacylation [3],self-aminoacylation [4],self-aminoacylation [5]
AAAGUUGCUAAUAGUCGCAAG [Fam3.1 aminoacylation ribozyme variant],1.96,1.94,1.82,1.83,
AAAUUUGCUAACAGUCGCAAG [Fam3.1 aminoacylation ribozyme variant],1.44,1.57,1.64,,1.3
AAAUUUGCUAAUAGUAGCAAG [Fam3.1 aminoacylation ribozyme variant],1.96,1.26,1.27,1.59,1.38
AAAUUUGCUAAUAGUCGCAGG [Fam3.1 aminoacylation ribozyme variant],3.16,2.47,1.79,1.97,2.11
AAAUUUGCUAAUAGUCGUAAG [Fam3.1 aminoacylation ribozyme variant],4.02,1.27,1.46,1.44,1.39
AAAUUUUCUAAUAGUCGCAAG [Fam3.1 aminoacylation ribozyme variant],1.81,,,,1.73
AAGCUUGCUAAUAAUCGCAAG [Fam3.1 aminoacylation ribozyme variant],1.23,0.991,1.09,1.51,1.68
AAGUAGGCUAAUAGUCGCAAG [Fam3.1 aminoacylation ribozyme variant],1.91,1.39,1.24,1.88,1.11
AAGUAUGCUAAUAGUCGCUAG [Fam3.1 aminoacylation ribozyme variant],1.41,1.21,0.937,1.17,1.02
AAGUCUGCUUAUAGUCGCAAG [Fam3.1 aminoacylation ribozyme variant],0.87,1.25,0.822,0.895,1.18
AAGUUAGCUAAGAGUCGCAAG [Fam3.1 aminoacylation ribozyme variant],1.77,1.55,1.86,1.8,1.66
AAGUUAGCUAAUAGUCGCAAG [Fam3.1 aminoacylation ribozyme variant],2.21,1.52,1.49,1.78,1.6
AAGUUAGUUAAUAGUCGCAAG [Fam3.1 aminoacylation ribozyme variant],1.76,1.58,1.38,1.72,1.36
AAGUUGGCUAAUAGUCCCAAG [Fam3.1 aminoacylation ribozyme variant],1.02,1.06,1.14,1.34,1.17
